Laboratory results as given in patent US4254024 (dated 1981).
For some assays here: Strings that start with PEPTIDE1 are HELM notation: dots part the residues, brackets hold end groups and non-standard residues. [ ]: non-standard residue; d: D form. The star is where a group is joined. Boc = CC(C)(C)OC(=O)*

assay: general procedure: peptide synthesis; benzhydrylamine resin; hydroxymethylpolystyrene-divinylbenzene (1% crosslinked); DCC/HOSu (solution); dicyclohexylcarbodiimide; details: late stage modification step, HOAc

Going from PEPTIDE1{Y.[dA].F.[Met-ol]}$$$$V2.0 to PEPTIDE1{Y.[dA].F.M.[NHEtOH]}$$$$V2.0, the step yield falls from 82% to 64%.

First: PEPTIDE1{Y.[dA].F.M.[am]}$$$$V2.0
Second: PEPTIDE1{Y.[dA].F.M.[NHEt]}$$$$V2.0
The step yield of the first is higher: 66% for the first, 53% for the second.

Substance PEPTIDE1{Y.[dA].F.M.[OMe]}$$$$V2.0 has a step yield of 68%.

same assay, conditions: late stage modification step, HOAc salt

Going from Boc-Tyr-DAla-Phe-Met-NHCH2 CH3 to Boc-Tyr-DAla-Phe-Met-NHCH2CH2 OH, the step yield rises from 92% to 97%.

Going from PEPTIDE1{Y.[dA].F.[Met(O)-ol]}$$$$V2.0 to PEPTIDE1{Y.[dA].F.M}$$$$V2.0, the step yield falls from 79% to 60%.

Going from Boc-Y[dA]FM-NH2 to Boc-Tyr-DAla-Phe-Methioninol, the step yield falls from 97% to 93%.

Compared with Boc-Tyr-DAla-Phe-Met(O)-ol, Boc-Y[dA]FM-OH is lower in step yield: 80% for the first, 57% for the second.

assay: peptide synthesis; details: coupling step, HOAc salt

For Boc-Y[dA]FM-OMe, the step yield was 80%.
